# Assay results as given in US20250011314A1, “MICROBIOCIDAL PYRAZOLE DERIVATIVES” (SYNGENTA CROP PROTECTION AG, priority 2021, published 2025).
# Some entries share one result that the patent states for a list of compounds.
# Tested on: Fusarium culmorum
# Format: cell-based
# Conditions: 20 ppm; liquid culture (PDB), 24° C.; growth inhibition photometrically 3-4 days after application
row,SMILES,control of Fusarium culmorum compared to untreated control
1,"Cn1cc(C(C)(CNC(=O)c2cc(-c3ccc(F)cc3F)on2)c2nc(Cl)cs2)cn1 (racemic) [Compound P-4, N-[2-(4-chlorothiazol-2-yl)-2-(1-methylpyrazol-4-yl)propyl]-5-(2,4-difluorophenyl)isoxazole-3-carboxamide]",at least 80%
2,"Cn1cc(C(C)(CNC(=O)c2cc(-c3ccc(F)cc3F)on2)c2nc(Cl)cs2)cn1 (single isomer, unassigned) [Compound P-5, N-[2-(4-chlorothiazol-2-yl)-2-(1-methylpyrazol-4-yl)propyl]-5-(2,4-difluorophenyl) isoxazole-3-carboxamide]",at least 80%
3,"Cn1cc(C(C)(CNC(=O)c2cc(-c3ccc(F)cc3F)on2)c2nc(Br)cs2)cn1 (stereo not drawn) [Compound P-8, N-[2-(4-bromothiazol-2-yl)-2-(1-methylpyrazol-4-yl)propyl]-5-(2,4-difluorophenyl) isoxazole-3-carboxamide]",at least 80%
4,"Cn1cc(C(C)(CNC(=O)c2cc(-c3ccc(F)cc3F)on2)c2nc(C(F)(F)F)cs2)cn1 (stereo not drawn) [Compound P-9, 5-(2,4-difluorophenyl)-N-[2-(1-methylpyrazol-4-yl)-2-[4-(trifluoromethyl)thiazol-2-yl]propyl]isoxazole-3-carboxamide]",at least 80%
5,"Cn1cc(C(C)(CNC(=O)c2cc(-c3ccc(F)cc3F)on2)c2csc(Br)n2)cn1 (stereo not drawn) [Compound P-10, N-[2-(2-bromothiazol-4-yl)-2-(1-methylpyrazol-4-yl)propyl]-5-(2,4-difluorophenyl) isoxazole-3-carboxamide]",at least 80%
6,"Cn1cc(C(C)(CNC(=O)c2cc(-c3ccc(F)cc3F)on2)c2nc(C3CC3)cs2)cn1 (stereo not drawn) [Compound P-11, N-[2-(4-cyclopropylthiazol-2-yl)-2-(1-methylpyrazol-4-yl)propyl]-5-(2,4-difluorophenyl) isoxazole-3-carboxamide]",at least 80%
